In paper PMC6909641:
No constants are given. Whether binding was seen depends on the method and setting. In cells and extracts the contact can be indirect. Some entries that bind do so weakly or less than the wild type.

Sequences of proteins named here, by UniProt entry; tags and fusion partners are left off.
UniProt P46934: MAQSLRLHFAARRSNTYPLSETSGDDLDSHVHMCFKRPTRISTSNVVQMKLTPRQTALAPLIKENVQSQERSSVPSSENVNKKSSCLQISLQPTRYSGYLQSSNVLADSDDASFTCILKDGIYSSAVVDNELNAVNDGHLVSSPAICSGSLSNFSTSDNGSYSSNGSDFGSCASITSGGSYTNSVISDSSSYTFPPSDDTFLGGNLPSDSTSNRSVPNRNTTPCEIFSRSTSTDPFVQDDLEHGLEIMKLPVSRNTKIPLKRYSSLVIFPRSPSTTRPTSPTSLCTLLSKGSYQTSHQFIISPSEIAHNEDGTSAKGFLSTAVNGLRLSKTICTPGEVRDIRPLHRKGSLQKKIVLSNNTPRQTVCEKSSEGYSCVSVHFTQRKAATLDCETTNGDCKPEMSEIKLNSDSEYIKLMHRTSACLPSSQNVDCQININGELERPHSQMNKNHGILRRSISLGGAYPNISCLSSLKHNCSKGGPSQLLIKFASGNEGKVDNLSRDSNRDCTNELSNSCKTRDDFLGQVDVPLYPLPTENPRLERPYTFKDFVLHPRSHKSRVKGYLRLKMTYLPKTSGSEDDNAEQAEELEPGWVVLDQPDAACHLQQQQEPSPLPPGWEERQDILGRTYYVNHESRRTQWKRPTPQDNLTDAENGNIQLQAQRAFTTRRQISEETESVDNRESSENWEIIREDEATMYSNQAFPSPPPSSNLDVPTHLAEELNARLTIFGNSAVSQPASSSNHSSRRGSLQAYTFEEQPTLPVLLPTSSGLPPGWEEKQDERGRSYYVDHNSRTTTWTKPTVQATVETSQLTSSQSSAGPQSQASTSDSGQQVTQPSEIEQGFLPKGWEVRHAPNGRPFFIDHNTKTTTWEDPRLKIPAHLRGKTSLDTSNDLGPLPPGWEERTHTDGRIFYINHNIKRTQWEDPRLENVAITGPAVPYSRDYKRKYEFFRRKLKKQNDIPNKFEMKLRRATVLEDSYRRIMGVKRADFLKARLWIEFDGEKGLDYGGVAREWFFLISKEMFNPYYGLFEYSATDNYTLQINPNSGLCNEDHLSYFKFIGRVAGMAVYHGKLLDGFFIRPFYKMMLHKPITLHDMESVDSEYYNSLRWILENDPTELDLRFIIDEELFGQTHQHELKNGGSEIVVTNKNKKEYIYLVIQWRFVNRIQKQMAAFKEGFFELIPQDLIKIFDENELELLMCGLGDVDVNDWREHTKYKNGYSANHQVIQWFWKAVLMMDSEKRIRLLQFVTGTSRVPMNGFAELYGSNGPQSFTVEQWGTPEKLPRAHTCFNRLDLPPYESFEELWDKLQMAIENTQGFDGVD
UniProt P38936: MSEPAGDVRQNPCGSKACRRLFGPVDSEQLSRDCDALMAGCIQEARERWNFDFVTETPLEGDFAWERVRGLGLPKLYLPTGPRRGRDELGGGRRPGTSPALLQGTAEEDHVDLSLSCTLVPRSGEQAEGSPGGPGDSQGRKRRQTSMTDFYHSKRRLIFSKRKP

What was measured:
[1] = target: NEDD4 (human (endogenous in HCT116 and SW1116)) (UniProt P46934); experiment: co-IP; NEDD4 antibody immunoprecipitation from lysates of HCT116 and SW1116 cells with stable NDRG1 overexpression, NDRG1 knockdown and their controls; p21 in the complex detected by western blot
[2] = target: NEDD4 (human (endogenous in HCT116 and SW1116)) (UniProt P46934); experiment: co-IP; endogenous proteins; HCT116 and SW1116 cells lysed in RIPA buffer with protease inhibitors; NEDD4 antibody or p21 antibody overnight at 4 °C, Protein A/G PLUS-Agarose; western blot
[3] = target: p21 (human (endogenous in HCT116 and SW1116)) (UniProt P38936); experiment: as above
NEDD4 (overexpressed) = NEDD4 (overexpressed) (UniProt P46934); experiment: co-IP; Flag-p21 and NEDD4 co-expressed in HEK 293 T cells; immunoprecipitation with anti-flag antibody and the reverse; western blot
Flag-p21 = Flag-p21 (UniProt P38936); experiment: as above

p21 (from UniProt P38936 1-164)
binding [1]: binds | binding [2]: binds

NEDD4 (from UniProt P46934 1-1319) (enzyme)
binding [3]: binds

Flag-p21 (from UniProt P38936 1-164)
binding (NEDD4 (overexpressed)): binds

NEDD4 (overexpressed) (from UniProt P46934 1-1319) (enzyme)
binding (Flag-p21): binds
